Assay: general procedure: Fmoc solid-phase peptide synthesis

## pHLIP-K(TAMRA)-C(TAMRA)
Conjugation step, overall
  conjugation yield: 69%
Late stage modification step
  step yield: >90%
